{"source": "PubChem BioAssay AID652259 (Drosophila RNAi Screening Center, 2013)", "assay": "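Genome-wide hunt for genes that control Wingless pathway activity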 (primary screen)", "system": "Drosophila clone 8 imaginal disc epithelial cells", "reagent": "long dsRNA against Drosophila genes", "treatment": "pathway stimulated by co-transfected Wingless expression plasmid", "measured": "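Firefly luciferase from a tcf-site Wingless reporter, measured alongside co-transfected Renilla luciferase that tracks transfection; pathway stimulated by a Wingless plasmid; the firefly-to-Renilla ratio is not deposited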", "scale": "firefly reporter light: higher = more Wg reporter light, before normalisation; Renilla control light: higher = more transfected or surviving cells", "rule for the call": "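Strong candidates differ from their plate mean by at least two out of four per-plate statistical tests; weak candidates meet just one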", "calls": "active = candidate regulator (raises or lowers reporter); inactive = not a candidate", "note": "The deposit covers about 22,000 reagents; shown is an unselected part of those that have a named target and a result. Of all reagents, 233 (1.1%) are marked active. 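Light values are raw, unnormalised plate reads; the ratio scores behind the reporter calls were not deposited.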 Entries without a mark were called inactive. A plus sign joins genes that one reagent is predicted to hit. No sequences are given here. The record does not give: the amount of reagent, the time to read-out, the dose of the treatment."}
{"Target gene":"Ndfip","amplicon":"DRSC11201","firefly reporter light, replicate 1":3580,"Renilla control light, replicate 1":1787}
{"Target gene":"Alg-2","amplicon":"DRSC07799","firefly reporter light, replicate 1":4133,"Renilla control light, replicate 1":1884}
{"Target gene":"CG17364","amplicon":"DRSC10269","firefly reporter light, replicate 1":3623,"Renilla control light, replicate 1":2061}
{"Target gene":"CG17364","amplicon":"DRSC10270","firefly reporter light, replicate 1":11045,"Renilla control light, replicate 1":4275}
{"Target gene":"CG17364","amplicon":"DRSC22689","firefly reporter light, replicate 1":6.18e5,"firefly reporter light, replicate 2":6.22e5,"Renilla control light, replicate 1":2.09e5,"Renilla control light, replicate 2":1.46e5}
{"Target gene":"CG14667","amplicon":"DRSC12253","firefly reporter light, replicate 1":14653,"Renilla control light, replicate 1":4144}
{"Target gene":"Kah","amplicon":"DRSC07887","firefly reporter light, replicate 1":4697,"Renilla control light, replicate 1":2625}
{"Target gene":"Kah","amplicon":"DRSC08515","firefly reporter light, replicate 1":10050,"Renilla control light, replicate 1":5563}
{"Target gene":"hdm","amplicon":"DRSC18013","firefly reporter light, replicate 1":21017,"Renilla control light, replicate 1":8162}
{"Target gene":"CG7366","amplicon":"DRSC10825","firefly reporter light, replicate 1":5112,"Renilla control light, replicate 1":1923}
{"Target gene":"Tmx3","amplicon":"DRSC10471","firefly reporter light, replicate 1":4901,"Renilla control light, replicate 1":2288}
{"Target gene":"Lcp65Aa","amplicon":"DRSC11209","firefly reporter light, replicate 1":1425,"firefly reporter light, replicate 2":8265,"Renilla control light, replicate 1":834,"Renilla control light, replicate 2":2834}
{"Target gene":"CG5823","amplicon":"DRSC15881","firefly reporter light, replicate 1":2868,"firefly reporter light, replicate 2":5312,"Renilla control light, replicate 1":1060,"Renilla control light, replicate 2":1879}
{"Target gene":"Ptp36E","amplicon":"DRSC03021","firefly reporter light, replicate 1":2838,"firefly reporter light, replicate 2":9353,"Renilla control light, replicate 1":1449,"Renilla control light, replicate 2":4896}

In a second layout: 2 of the entries above
Target gene	amplicon	firefly reporter light, replicate 1	firefly reporter light, replicate 2	Renilla control light, replicate 1	Renilla control light, replicate 2
Ndfip	DRSC11201	3580		1787	
Alg-2	DRSC07799	4133		1884	

Additional results:
{"Target gene":"KaiR1D","amplicon":"DRSC15516","firefly reporter light, replicate 1":11704,"Renilla control light, replicate 1":2549}
{"Target gene":"CG3610","amplicon":"DRSC15502","firefly reporter light, replicate 1":11799,"Renilla control light, replicate 1":3440}
{"Target gene":"CheB93b","amplicon":"DRSC21762","firefly reporter light, replicate 1":2.88e5,"firefly reporter light, replicate 2":3.25e5,"Renilla control light, replicate 1":59841,"Renilla control light, replicate 2":54950}
{"Target gene":"CG10332 (retired record) + IM18","amplicon":"DRSC04064","firefly reporter light, replicate 1":3508,"firefly reporter light, replicate 2":10325,"Renilla control light, replicate 1":755,"Renilla control light, replicate 2":3024}
{"Target gene":"Ublcp1","amplicon":"DRSC14149","firefly reporter light, replicate 1":2448,"firefly reporter light, replicate 2":5536,"Renilla control light, replicate 1":1136,"Renilla control light, replicate 2":1768}
{"Target gene":"CG4372","amplicon":"DRSC04466","firefly reporter light, replicate 1":3536,"firefly reporter light, replicate 2":4262,"Renilla control light, replicate 1":1047,"Renilla control light, replicate 2":2188}
{"Target gene":"PNKP","amplicon":"DRSC16512","firefly reporter light, replicate 1":12554,"Renilla control light, replicate 1":3537}
{"Target gene":"CG17266","amplicon":"DRSC04979","firefly reporter light, replicate 1":3332,"firefly reporter light, replicate 2":11569,"Renilla control light, replicate 1":1120,"Renilla control light, replicate 2":4311}
{"Target gene":"CG17266","amplicon":"DRSC22368","firefly reporter light, replicate 1":5.51e5,"firefly reporter light, replicate 2":5.79e5,"Renilla control light, replicate 1":3.00e5,"Renilla control light, replicate 2":3.02e5}
{"Target gene":"Diap1","amplicon":"DRSC11404","firefly reporter light, replicate 1":161,"Renilla control light, replicate 1":87}
{"Target gene":"EndoA","amplicon":"DRSC14775","firefly reporter light, replicate 1":2986,"firefly reporter light, replicate 2":2653,"Renilla control light, replicate 1":1286,"Renilla control light, replicate 2":656}
